For some of these results: Weaker means in comparison with the reference protein, sequence or condition of that experiment.
Tests used:
Assay in all cases: enzyme reaction in vitro
[1] = target: Pfu R94A FEN1 (Pyrococcus furiosus) (UniProt O93634); conditions: one methylphosphonate linkage in probe (Pd6), racemic; R94A cleaves methylphosphonate-modified probe; 50 C; purified recombinant protein; label: 5'-TET probe; folded or branched DNA
[2] = target: T1, Pfu FEN1 (Pyrococcus furiosus) (UniProt O93634); conditions: 4 mM MgCl2, 50 C; rates in figure; purified recombinant protein; label: 5'-TET; folded or branched DNA
T1 sequence: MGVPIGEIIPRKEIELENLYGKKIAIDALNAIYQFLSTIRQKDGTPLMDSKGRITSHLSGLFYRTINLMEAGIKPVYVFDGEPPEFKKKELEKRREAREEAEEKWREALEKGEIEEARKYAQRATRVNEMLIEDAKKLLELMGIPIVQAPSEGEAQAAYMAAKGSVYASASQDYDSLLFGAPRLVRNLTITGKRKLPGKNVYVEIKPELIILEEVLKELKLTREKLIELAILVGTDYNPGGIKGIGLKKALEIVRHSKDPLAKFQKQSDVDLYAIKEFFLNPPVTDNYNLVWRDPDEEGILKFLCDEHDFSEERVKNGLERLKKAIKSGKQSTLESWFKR

[3] = target: Pfu Y33A FEN1 (Pyrococcus furiosus) (UniProt O93634); conditions: more reduced rate, specificity unchanged; purified recombinant protein; label: 5'-TET; folded or branched DNA
[4] = target: Pfu Y33F FEN1 (Pyrococcus furiosus) (UniProt O93634); conditions: reduced rate, specificity unchanged; purified recombinant protein; label: 5'-TET; folded or branched DNA

Sequence | activity on this sequence [1] | activity on this sequence [2] | activity on this sequence [3] | activity on this sequence [4]
CACTCCAGGGACGCGGACT / CTTTTACTCACCGCAGTTGGTCCGCGTCCCTGGAGTGTTC / TTTTCAACTGCGGTGAG [Pd6 substrate 1174-55-13] | active |  |  | 
AAAACGCTGTCTCGCTGAAAGCGAGACAGCGAAAGACGCTCGT / ACGAGCGTCTTTT [203-15-2/203-15-5] |  | active | less active | less active
